Results are given in words; binding and its absence hold for the method and conditions named. Binding seen in cells or lysates may run through a third protein. Here binding means that the protein was enriched with, or labelled near, the bait; the list need not be complete. Sequences can lack the tags named with a protein.

The assay deals with T1, Peroxiredoxin V (mouse (endogenous in kidney)) (UniProt P99029).
T1 sequence: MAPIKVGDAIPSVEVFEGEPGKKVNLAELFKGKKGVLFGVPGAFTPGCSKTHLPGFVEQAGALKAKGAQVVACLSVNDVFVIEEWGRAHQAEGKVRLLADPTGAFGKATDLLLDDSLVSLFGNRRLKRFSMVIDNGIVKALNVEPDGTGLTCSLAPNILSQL
The experiment in a line: affinity purification with mass spectrometry; 500 μg total protein of normoxic or hypoxic (8% O2, 4 h) mouse kidney, anti-Prdx V antibody at 4°C overnight, protein G agarose; gel-assisted digestion, nano-UPLC-MS^E; three independent experiments.

B1: Propionyl CoA carboxylase beta chain, mitochondrial (protein, UniProt Q99MN9 29-541)
chain: GLCSQPVSVKERIDNKRHAALLGGGQRRIDAQHKRGKLTARERISLLLDPGSFMESDMFVEHRCADFGMAADKNKFPGDSVVTGRGRINGRLVYVFSQDFTVFGGSLSGAHAQKICKIMDQAITVGAPVIGLNDSGGARIQEGVESLAGYADIFLRNVTASGVIPQISLIMGPCAGGAVYSPALTDFTFMVKDTSYLFITGPEVVKSVTNEDVTQEQLGGAKTHTTVSGVAHRAFDNDVDALCNLREFFNFLPLSSQDPAPIRECHDPSDRLVPELDTVVPLESSKAYNMLDIIHAVIDEREFFEIMPSYAKNIVVGFARMNGRTVGIVGNQPNVASGCLDINSSVKGARFVRFCDAFNIPLITFVDVPGFLPGTAQEYGGIIRHGAKLLYAFAEATVPKITVITRKAYGGAYDVMSSKHLLGDTNYAWPTAEIAVMGAKGAVEIIFKGHQDVEAAQAEYVEKFANPFPAAVRGFVDDIIQPSSTRARICCDLEVLASKKVHRPWRKHANIPL
Turning to B1, the binding entry is given as “binds”.

B2: Non-lysosomal glucosylceramidase (protein, UniProt Q69ZF3 1-918)
chain: MVTCVPASEQVGCAERDSQVYCEDTGGTEAVRVTDCGSPEDSGPQDEPSYCNSEDSGQLMASYEGKARGYQVPPFGWRICLAHEFAEKRRPFQANNISLSNLVKHLGMGLRYLKWWYRKTHVEKKTPFIDMLNSLPLRQIYGCPLGGIGGGTITRGWRGQFCRWQLNPGMYQHQTVIADQFIVCLRRDGRTVYQQVLSLELPNVLRSWNWGLCGYFAFYHALYPRAWTVYQLPGQNVTLTCRQVTPILPHDYQDSSLPVGVFVWDVENEGDETLDVSITFSMRNGLGGEDDAAGSLWNEPFRLEQGGTTVQGLLLHHPTPPNPYTMAVAARCTADTTVTHTTAFDPNGTGQQVWQDLLQDGQLDSPAGQSTPTQKGEGIAGAVCVSSKLLPRSRCCLEFSLAWDMPKIMFGAKSQVHYRRYTRFFGSDGDVAPALSHYALCHYADWEDRISAWQNPVLDDRTLPAWYKSALFNELYFLADGGTVWLEVPADSLPEGLGGSMRQLRSTLQDYGRFGYLEGQEYRMYNTYDVHFYASFALVMLWPKLELSLQYDMALATLKEDLTRRRYLMSGVVAPVKRRNVIPHDIGDPDDEPWLRVNAYLIHDTADWKDLNLKFVLQIYRDYYLTGDQGFLEDMWPVCLAVMESEMKFDKDQDGLIENGGYADQTYDAWVTTGPSAYCGGLWLAAVAVMVQMAVLCGAQDVQERFASILCRGREAYERLLWNGRYYNYDSSSHPQSRSIMSDQCAGQWFLRACGLGEGDTEVFPTLHVVRALQTIFELNVQAFAGGAMGAVNGMHPHGVPDRSSVQSDEVWVGVVYGLAATMIQEGLTWEGFRTAEGCYRTVWERLGLAFQTPEAYCQQQVFRSLAYMRPLSIWAMQLALQQQQHKKSRRPSVTQGTGLSTQPECGPKRSLANLNSE
On to B2, for which the binding result is “binds”.

B3: Thioredoxin (protein, UniProt P10639 1-105)
chain: MVKLIESKEAFQEALAAAGDKLVVVDFSATWCGPCKMIKPFFHSLCDKYSNVVFLEVDVDDCQDVAADCEVKCMPTFQFYKKGQKVGEFSGANKEKLEASITEYA
For the molecule B3, the binding result is “binds”.

B4: Keratin type I cuticular Ha2 (protein, UniProt Q62168 1-407)
chain: MPSVCMPTTYRPASCLSKTYLSSSCQPSNRRPTGCISSSMGTYGLFCEGAFNGNEKETMQVLNDRLANYLEKVRQLEKENAELEGKIQDVYQGQVLTMCPDYQSYFQTIEELQQKVLCTKAENARMIVHIDNAKLAADDFRTKYETELALRQLVEADTNGLRRILDELTLNKADLEAQVESLKEELLCLKRNHEEEVGVLRQQLGDRLNIEVDAAPPVDLTRMLEEMRCQYETMVETNHRDVEEWFNMQMEELNKQVATSSEQLQSYQSDIIDLRRTVNTLEIELQAQHSLRDSLENTLGETEGRFTSQLSQMQCMITNVESQLSDIRCDLERQNQEYKVLLDVKARLECEIDTYRGLLESEDSKLPCNPCSTPSCQPCAPSPGVSRTVCVPHTVCVPCSPCLQTRY
Take B4: the binding result is given as “binds”.

B5: Ras related protein Rab 43 isoform b (protein, UniProt Q8CG50 1-210)
chain: MAGPGPGDQDEHYDFLFKLVLVGDASVGKTCVVQRFKTGAFSARQGSTIGVDFTMKTLEIQGKRVKLQIWDTAGQERFRTITQSYYRSANGAILAYDISKRSTFLSVPHWIEDVRKYAGSNIVQLLIGNKSDLADFREVPLAEAQSLAEHYDILCAIETSAKDSSNVEEAFTRVATELIMRHGGPMFSEKNTDHIQLDSKDIAESWGCGC
Regarding B5, the binding result was “binds”.

B6: Propionyl CoA carboxylase alpha chain, mitochondrial (protein, UniProt Q91ZA3 49-724)
chain: SVEYEPKEKTFDKILIANRGEIACRVIKTCKKMGIKTVAIHSDVDASSVHVKMADEAVCVGPAPTSKSYLNMDAIMEAIKKTRAQAVHPGYGFLSENKEFAKRLAAEDVTFIGPDTHAIQAMGDKIESKLLAKRAKVNTIPGFDGVVKDADEAVRIAREIGYPVMIKASAGGGGKGMRIAWDDEETRDGFRFSSQEAASSFGDDRLLIEKFIDNPRHIEIQVLGDKHGNALWLNERECSIQRRNQKVVEEAPSIFLDPETRQAMGEQAVALAKAVKYSSAGTVEFLVDSQKNFYFLEMNTRLQVEHPVTECITGLDLVQEMILVAKGYPLRHKQEDIPISGWAVECRVYAEDPYKSFGLPSIGRLSQYQEPIHLPGVRVDSGIQPGSDISIYYDPMISKLVTYGSDRAEALKRMEDALDNYVIRGVTHNIPLLREVIINTRFVKGDISTKFLSDVYPDGFKGHTLTLSERNQLLAIASSVFVASQLRAQRFQEHSRVPVIRPDVAKWELSVKLHDEDHTVVASNNGPAFTVEVDGSKLNVTSTWNLASPLLSVNVDGTQRTVQCLSREAGGNMSIQFLGTVYKVHILTKLAAELNKFMLEKVPKDTSSTLCSPMPGVVVAVSVKPGDMVAEGQEICVIEAMKMQNSMTAGKMGKVKLVHCKAGDTVGEGDLLVELE
As for B6, the binding entry is “binds”.
